No constants are given. Whether binding was seen depends on the method and setting. In cells and extracts the contact can be indirect. A yes stands for co-enrichment or nearness to the bait. Other partners may have been found.

Amino acid sequences for entries named in this document (tags omitted). Residues count along the entry.
UniProt P04150: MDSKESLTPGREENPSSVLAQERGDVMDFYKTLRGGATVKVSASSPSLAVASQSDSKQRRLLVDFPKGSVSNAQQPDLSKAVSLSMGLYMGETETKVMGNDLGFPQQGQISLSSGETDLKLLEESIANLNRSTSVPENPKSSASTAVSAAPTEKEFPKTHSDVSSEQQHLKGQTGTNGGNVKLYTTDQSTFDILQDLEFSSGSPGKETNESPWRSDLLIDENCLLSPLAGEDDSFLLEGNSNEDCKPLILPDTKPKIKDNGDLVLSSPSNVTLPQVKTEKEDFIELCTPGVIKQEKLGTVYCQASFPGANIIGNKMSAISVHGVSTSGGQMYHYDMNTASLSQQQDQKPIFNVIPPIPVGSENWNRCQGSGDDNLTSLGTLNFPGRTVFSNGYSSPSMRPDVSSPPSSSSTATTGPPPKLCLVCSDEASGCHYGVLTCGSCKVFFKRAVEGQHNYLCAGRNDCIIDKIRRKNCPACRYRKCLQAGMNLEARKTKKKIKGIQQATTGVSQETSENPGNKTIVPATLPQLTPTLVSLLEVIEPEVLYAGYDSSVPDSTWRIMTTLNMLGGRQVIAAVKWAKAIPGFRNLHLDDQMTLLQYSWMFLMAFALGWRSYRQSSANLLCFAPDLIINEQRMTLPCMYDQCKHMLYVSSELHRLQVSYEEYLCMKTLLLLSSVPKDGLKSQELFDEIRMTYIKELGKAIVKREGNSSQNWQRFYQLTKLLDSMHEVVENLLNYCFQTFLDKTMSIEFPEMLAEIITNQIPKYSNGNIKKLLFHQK
UniProt P01009, residues 25-418: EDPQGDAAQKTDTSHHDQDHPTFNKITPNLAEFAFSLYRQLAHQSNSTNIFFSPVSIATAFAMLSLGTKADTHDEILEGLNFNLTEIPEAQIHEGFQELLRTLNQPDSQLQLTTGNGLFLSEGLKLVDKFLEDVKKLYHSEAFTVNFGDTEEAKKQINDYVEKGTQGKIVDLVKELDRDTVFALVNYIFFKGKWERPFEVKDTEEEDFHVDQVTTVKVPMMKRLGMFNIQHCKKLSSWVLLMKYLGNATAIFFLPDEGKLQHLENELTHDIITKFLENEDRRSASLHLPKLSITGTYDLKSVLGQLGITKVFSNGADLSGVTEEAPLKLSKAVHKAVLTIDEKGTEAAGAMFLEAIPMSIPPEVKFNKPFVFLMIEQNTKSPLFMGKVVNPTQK

The values that follow come from article doi:10.1101/2022.03.11.483896.

The experiment deals with Glucocorticoid receptor (human (endogenous in THP-1)) (UniProt P04150). The experiment can be described thus: affinity purification with mass spectrometry.

Consider “Alpha-1-antitrypsin (from UniProt P01009 25-418)”, for which the binding result is “binds”.
